PubChem BioAssay AID624150 – Cancer Research UK Cambridge – 2012

Screen: 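Effect of silencing chromatin genes on per-cell differentiation marker amount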 (primary screen)
System: primary human epidermal keratinocytes
Reagent: siRNA pool against human genes, 1-2 µM siRNA in 20 µl nucleofection
Duration: 72 h after transfection plus 48 h differentiation (about 5 days)
Challenge: five arms for 48 h: vehicle, AG1478 10 µM, BMP2/7 200 ng/ml, both together, or 10% serum
Detection: 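Per-cell amount of a differentiation marker read by infrared scanning of the plate, given as a z-score within each plate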
Scale: z-score, vehicle and z-score, AG1478 10 µM and z-score, BMP2/7 200 ng/ml and z-score, AG1478 with BMP2/7 and z-score, 10% serum: higher = more differentiation marker per cell
The whole screen tested 331 reagents; this is a part drawn at random. 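Each arm had three replicate z-scores, but only the first replicate is printed; higher values mean more differentiation marker per cell.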 No sequences are given here.

| target | z-score, vehicle | z-score, AG1478 10 µM | z-score, BMP2/7 200 ng/ml | z-score, AG1478 with BMP2/7 | z-score, 10% serum |
| --- | --- | --- | --- | --- | --- |
| BRD9 (GeneID 65980) | -0.495 | -0.694 | -0.731 | -0.0288 | -0.174 |
| PRMT6 (GeneID 55170) | 0.515 | 0.605 | 0.585 | 0.324 | 0.729 |
| PHF23 (GeneID 79142) | 0.0964 | 0.221 | 0.23 | 0.368 | -0.389 |
| HINFP (GeneID 25988) | -1.49 | -0.0212 | 0.29 | 0.00892 | -0.225 |
| SETD3 (GeneID 84193) | -0.28 | -0.196 | -0.153 | 0.391 | 0.417 |
| SMARCC2 (GeneID 6601) | 1.52 | 1.31 | 1.01 | 0.966 | 1.27 |
| KMT5B (GeneID 51111) | 0.268 | 0.138 | -0.0296 | 0.0464 | 0.186 |
| TYW5 (GeneID 129450) | 0.35 | -0.373 | 0.443 | -0.314 | 1.06 |
| PWWP2A (GeneID 114825) | -0.198 | 0.371 | -0.952 | -0.713 | -0.0591 |
| KAT2B (GeneID 8850) | 1.02 | -0.845 | 0.256 | -0.372 | 0.339 |
| SFMBT2 (GeneID 57713) | -0.694 | -0.12 | -0.565 | -0.00297 | 0.705 |
| RNF17 (GeneID 56163) | 0.342 | 0.181 | -0.0249 | 0.425 | 0.269 |
| PHF1 (GeneID 5252) | -1.51 | -1.85 | -1.8 | -2.55 | -2.14 |
| BAHCC1 (GeneID 57597) | 0.768 | 0.462 | 0.196 | 0.373 | -0.404 |
| PHF21A (GeneID 51317) | 2.15 | 2.09 | 1.1 | 1.36 | 0.734 |
| ATAD2B (GeneID 54454) | 0.169 | -0.643 | -0.362 | 0.656 | 0.465 |
| EP400 (GeneID 57634) | -2 | -1.81 | -1.51 | -1.89 | -3.71 |
| KDM5C (GeneID 8242) | -0.068 | 0.121 | -0.00309 | -0.0587 | 0.348 |
| SMNDC1 (GeneID 10285) | 0.0818 | -0.676 | -0.121 | -0.0292 | 0.416 |
| L3MBTL1 (GeneID 26013) | 2.19 | -0.349 | -0.953 | -1.02 | -0.538 |
| BRPF1 (GeneID 7862) | 0.78 | 0.236 | 0.548 | -0.0976 | 0.489 |
| CECR2 (GeneID 27443) | -0.308 | 1.26 | 1.08 | 0.951 | 1.11 |
| PRG4 (GeneID 10216) | 1.48 | 2.21 | 2.1 | 1.93 | 0.233 |
| TERF2IP (GeneID 54386) | 0.486 | 0.519 | 1.2 | 0.488 | 0.573 |
| TDRD12 (GeneID 91646) | 0.516 | 0.044 | 0.163 | 0.0935 | -0.736 |
| PRMT5 (GeneID 10419) | -1.03 | -0.852 | -1.02 | -0.991 | -0.433 |
| MTF2 (GeneID 22823) | -0.189 | -0.389 | -0.464 | -0.321 | -0.184 |
| KMT2D (GeneID 8085) | -1.43 | -0.97 | -1.05 | -0.571 | -0.15 |
| CDY1 (GeneID 9085) | 0.0473 | 0.326 | 0.0408 | 0.704 | -0.0525 |
| SMYD5 (GeneID 10322) | 1.02 | -0.558 | -0.649 | -0.971 | 0.661 |
| SETD1A (GeneID 9739) | -0.483 | -0.511 | -1.49 | -1.32 | 0.0858 |
| OGA (GeneID 10724) | -1.09 | -1 | -0.898 | -0.0965 | -0.519 |
| HDAC2 (GeneID 3066) | -0.5 | -0.52 | -0.246 | -0.0826 | 0.0901 |
| G2E3 (GeneID 55632) | 0.0692 | 1.03 | 1.22 | 1.35 | 0.0952 |
| RBBP4 (GeneID 5928) | -0.737 | -0.144 | 0.766 | 0.533 | 0.155 |
| TDRD10 (GeneID 126668) | 0.0291 | -0.668 | -0.642 | -0.564 | 0.0463 |
| MLLT10 (GeneID 8028) | -0.743 | -0.157 | -0.415 | -0.151 | -0.32 |
| SETD5 (GeneID 55209) | 1.14 | 1.9 | 1.08 | 1.44 | 1.98 |
| PWWP2B (GeneID 170394) | 0.863 | 0.217 | 0.201 | -0.726 | 1.17 |
| JMJD8 (GeneID 339123) | -0.682 | 1.15 | 0.863 | 0.484 | 0.348 |
| HDGFL3 (GeneID 50810) | -1.12 | -0.99 | -1.78 | -1.01 | -0.865 |
| THUMPD2 (GeneID 80745) | 1.88 | 1.89 | 1.9 | 0.195 | 0.535 |
| BRD8 (GeneID 10902) | 1.31 | 0.455 | 1.27 | -0.411 | 1.09 |
| PHF10 (GeneID 55274) | 1.05 | 0.526 | -0.1 | 0.839 | 0.83 |
| ORC1 (GeneID 4998) | -1.35 | -0.988 | -1.28 | -0.0113 | -1.95 |
| PRMT8 (GeneID 56341) | -0.288 | 0.259 | 0.275 | 0.508 | -0.351 |
| CSNK2B (GeneID 1460) | -0.0985 | -2.76 | -3.04 | -3.25 | -3.8 |
| SIN3A (GeneID 25942) | -0.796 | -1.12 | -1.42 | -1.21 | -1.85 |
| CHD5 (GeneID 26038) | -0.73 | -0.164 | -0.556 | -0.0731 | -0.52 |
| SP110 (GeneID 3431) | -0.831 | -0.906 | -1.19 | -1.22 | -0.737 |
| CBX7 (GeneID 23492) | -0.735 | -0.0897 | -0.711 | -0.48 | 0.29 |
| RAD54B (GeneID 25788) | -0.126 | 0.704 | -0.548 | -0.959 | -0.382 |
| HDAC9 (GeneID 9734) | 0.637 | -0.854 | 0.655 | -1.06 | -1.45 |
| BRD1 (GeneID 23774) | 1.52 | 1.24 | 1.14 | 0.845 | 0.587 |

3 successive entries from above:
| target | z-score, vehicle | z-score, AG1478 10 µM | z-score, BMP2/7 200 ng/ml | z-score, AG1478 with BMP2/7 | z-score, 10% serum |
| --- | --- | --- | --- | --- | --- |
| PHF23 (GeneID 79142) | 0.0964 | 0.221 | 0.23 | 0.368 | -0.389 |
| HINFP (GeneID 25988) | -1.49 | -0.0212 | 0.29 | 0.00892 | -0.225 |
| SETD3 (GeneID 84193) | -0.28 | -0.196 | -0.153 | 0.391 | 0.417 |
